Laboratory results taken from patent US20080107757A1, “Sophorae Subprostratae Radix Extract for Prevention and Treatment of Respiratory Diseases” (priority 2004, published 2008).
For at least one compound, name, drawing or mass did not settle the structure.

Tests used:
[1] = tested on: IL-4, IL-5, and IL-13 protein; assay: Measurement of cytokines (IL-4, 5 and 13) in lung tissues of OVA-sensitized and -challenged mice; assay type: in vivo, mouse; conditions: 48 hrs after last challenge; SOS 50, 100, 200 mg/kg; FIG. 9
[2] = tested on: OVA-sensitized and -challenged mice; assay: Inhibition of airway remodeling in OVA-sensitized and -challenged mice; assay type: in vivo, mouse; conditions: 48 hrs after last challenge, SOS 50, 100, 200 mg/kg

CC(C)(O)c1ccccc1CC[C@@H](SCC1(CC(=O)O)CC1)c1cccc(/C=C/c2ccc3ccc(Cl)cc3n2)c1 [Montelukast]
significantly reduced: level of IL-4 protein in lung tissues [1] | level of IL-5 protein in lung tissues [1] | level of IL-13 protein in lung tissues [1] | levels of lung collagen ([2]; FIG. 8) | percentage of airway epithelium staining positively with PAS ([2]; FIGS. 2 and 3) | area of peribronchial α-smooth muscle actin immunostaining ([2]; FIGS. 4 and 5) | area of peribronchial trichrome staining ([2]; FIGS. 6 and 7)
